SMILES strings stand for the structures. The list shows a part of the results. Cut-off read from the data, not from the text of the source: active = 150% or more and inactive = the rest. Repeats are few or missing, and single values can be far off.

The test system of the assay is Staphylococcus aureus JE2-lux inside RAW 264.7 macrophages. In words: intracellular bacterial bioluminescence relative to DMSO vehicle; higher = higher intracellular bacterial metabolic activity. The settings on record: 10 µM; treatment time 4 h; gentamicin 50 µg/ml.
Turning to `CC(=O)c1cccc(NC(=O)N2CCCN(c3nc4cc(C)c(C)cc4cc3C#N)CC2)c1`, the intracellular bacterial bioluminescence is inactive: 80.8%.

In the case of `CC1=C(C(=O)Nc2ccc(C)cc2)C(c2ccc(N(C)C)cc2)NC(=O)N1` (centres undefined), the intracellular bacterial bioluminescence is inactive: 115%.

Take `Cc1cc(NC(=O)CSc2nc(=O)n(CCO)c3c2CCCC3)no1`: the intracellular bacterial bioluminescence is inactive: 122%.

As for `O=C(Nc1cccc2ccccc12)c1cnc2sccn2c1=O`, the intracellular bacterial bioluminescence is inactive: 120%.

Take `CC(C)COc1ccc(S(=O)(=O)Nc2ccc3c(c2)C(=O)Nc2ccccc2O3)cc1`: the intracellular bacterial bioluminescence was inactive: 84.2%.

For `Cc1ccn2c(=O)nc(SCC(=O)N3CCC(C)CC3)nc2c1`, the intracellular bacterial bioluminescence is inactive: 120%.

As for `Cc1ccc(CNc2nccn(-c3ccc(C)cc3C)c2=O)cc1`, the intracellular bacterial bioluminescence is inactive: 97.1%.

Turning to `CC1(C)c2sc(=O)[nH]c2SC2C(=O)N(CC(=O)O)C(=O)C21` (centres undefined), the intracellular bacterial bioluminescence was inactive: 124%.

In the case of `Cc1ccnc(NC(=O)Nc2c[nH]c3ccccc23)c1`, the intracellular bacterial bioluminescence was inactive: 99.9%.

As to `COCCOC(=O)c1c(C)oc2ccc(OCC(=O)c3ccc(OC)cc3)cc12`, the intracellular bacterial bioluminescence is inactive: 95.5%.

Turning to `CCc1ccc2c(c1)C(O)(c1c(C)[nH]c3ccccc13)C(=O)N2` (centres undefined), the intracellular bacterial bioluminescence is inactive: 64.8%.

`COc1ccc2c(C)cc(SCC(=O)Nc3ccc4c(c3)OCO4)nc2c1`: the intracellular bacterial bioluminescence was inactive: 69.6%.

Turning to `Cc1ccc(CN(CC(=O)N2CCNCC2)C(=O)c2cccnc2)cc1C`, the intracellular bacterial bioluminescence was inactive: 76.4%.

In the case of `Cc1cc(C)n2cc(CSc3nc4cc([N+](=O)[O-])ccc4o3)nc2n1`, the intracellular bacterial bioluminescence is inactive: 75.4%.

Turning to `Cc1cc2oc(C(=O)N(C)Cc3nc4cc(Cl)ccc4[nH]3)cc(=O)c2cc1C`, the intracellular bacterial bioluminescence is inactive: 75.9%.

With `COc1ccc(NC(=O)c2cc(-c3ccc4c(c3)OCCO4)on2)c(OC)c1`, the intracellular bacterial bioluminescence is inactive: 108%.

In the case of `COC(=O)c1sccc1S(=O)(=O)Nc1ccc(F)cc1Cl`, the intracellular bacterial bioluminescence was inactive: 84.7%.

As to `CCc1nc2onc(C)c2c(=O)n1CC(=O)OC`, the intracellular bacterial bioluminescence is inactive: 103%.

Take `COc1ccc(CCNc2nc(C)nc3sc4c(c23)CCCC4)cc1OC`: the intracellular bacterial bioluminescence was inactive: 79.7%.

For `COc1ccc(S(=O)(=O)NC(=N)NCCc2c(C)[nH]c3ccc(F)cc23)cc1C`, the intracellular bacterial bioluminescence was inactive: 92.9%.

As to `Cc1sc(NC(=O)c2cccnc2)nc1-c1ccc2c(c1)CCN2C(=O)C(C)C`, the intracellular bacterial bioluminescence is inactive: 106%.

With `O=C(Nc1ccc2c(c1)CCC2)C1CCCN(C(=O)Nc2ccc(F)cc2)C1` (centres undefined), the intracellular bacterial bioluminescence is inactive: 92.5%.

As to `COc1cc(CNC(=O)CCn2c(-c3ccccn3)cc3cccnc32)cc(OC)c1`, the intracellular bacterial bioluminescence was inactive: 105%.

Regarding `CN(C)C(CNS(=O)(=O)c1ccc2c(c1)NC(=O)CO2)c1ccc2c(c1)OCO2` (centres undefined), the intracellular bacterial bioluminescence is inactive: 87.9%.

As for `COC(=O)c1ccc(CSc2nc3sc(C(=O)O)c(C)c3c(=O)[nH]2)cc1`, the intracellular bacterial bioluminescence is inactive: 113%.

As to `Fc1cccc2sc(Nc3nc(-c4nc5ccccc5s4)cs3)nc12`, the intracellular bacterial bioluminescence is inactive: 108%.

Regarding `O=C(Cn1ncn2nc3c(c2c1=O)CCCC3)Nc1ccc2c(c1)OCCO2`, the intracellular bacterial bioluminescence was inactive: 78.7%.

In the case of `Cc1cc(NC(=O)CSc2nc3sc4c(c3c(=O)[nH]2)CCC(C(C)(C)C)C4)no1` (centres undefined), the intracellular bacterial bioluminescence was inactive: 127%.

As for `Cc1nc2c(cc1NC(=O)Nc1ccccc1Cl)nc(C)n2Cc1ccccc1`, the intracellular bacterial bioluminescence is inactive: 60.5%.

Take `O=C(O)c1ccc(Nc2nc(-c3ccccc3)c3ccccc3n2)cc1`: the intracellular bacterial bioluminescence was inactive: 95.3%.

Take `CCC(C)NC(=O)C(C)C1CCN(C(=O)c2cc3ccccc3[nH]2)CC1` (centres undefined): the intracellular bacterial bioluminescence was inactive: 87.4%.

`Cn1c(=O)[nH]c(=O)c2c1nc(CN1CCN(c3cccc(Cl)c3)CC1)n2Cc1cccc(Cl)c1`: the intracellular bacterial bioluminescence was inactive: 122%.

Take `CCc1cccc(NC(=O)Cn2cnc3sc(-c4nc(-c5ccncc5)no4)c(C)c3c2=O)c1`: the intracellular bacterial bioluminescence was inactive: 83.2%.

Turning to `O=C(NC1CCCCC1)N1CCC(n2cnc3cccnc32)CC1`, the intracellular bacterial bioluminescence is inactive: 104%.

Turning to `COc1cc(Nc2c(C)c(C)nc3nc(Cc4cccc(F)c4)nn23)cc(OC)c1`, the intracellular bacterial bioluminescence is inactive: 107%.

Regarding `Cc1ccc(CNc2ncccc2-c2nc(-c3ccccc3C)no2)cc1`, the intracellular bacterial bioluminescence was inactive: 130%.

As for `COc1cc(Cl)ccc1Oc1ncnc2oc(C)c(C)c12`, the intracellular bacterial bioluminescence is inactive: 101%.

As for `COc1ccc(C(=O)NCc2cccnc2)cc1S(=O)(=O)N1CCOCC1`, the intracellular bacterial bioluminescence was inactive: 88.7%.

As to `c1csc(CSc2nnc3sc4ccccc4n23)c1`, the intracellular bacterial bioluminescence was inactive: 91.4%.

As to `O=C(CCN1C(=O)c2ccccc2S1(=O)=O)Nc1ncc([N+](=O)[O-])s1`, the intracellular bacterial bioluminescence was inactive: 66.2%.

On to `CCOC(=O)c1sc(-c2ccccc2)cc1NC(=O)CCS(=O)(=O)c1ccccc1`, for which the intracellular bacterial bioluminescence was inactive: 114%.

As to `O=C(Cc1csc2nc(-c3ccc(F)cc3)cn12)Nc1ccc(F)c(F)c1`, the intracellular bacterial bioluminescence is inactive: 91.1%.

Consider `Cc1cc(NCc2ccccc2Cl)n2nc(Cc3cccc(F)c3)nc2n1`, for which the intracellular bacterial bioluminescence was inactive: 66.8%.

As for `CCOC(=O)c1ccc(NC(=O)CSc2nncn2-n2cccc2)cc1`, the intracellular bacterial bioluminescence is inactive: 71%.

On to `Cc1nnsc1C(=O)Nc1ccccc1C(F)(F)F`, for which the intracellular bacterial bioluminescence was inactive: 109%.

Take `CCN1CCN(CC(=O)Nc2ccc(C)cc2C)C(=O)C1=O`: the intracellular bacterial bioluminescence was inactive: 84.2%.

`Cc1ccc2nc(SC(C)c3ccccc3)nc(=O)n2c1` (centres undefined): the intracellular bacterial bioluminescence is inactive: 73.9%.

Take `CCOc1ccccc1NC(=O)C1CCN(c2ncnc3oc(C)c(C)c23)CC1`: the intracellular bacterial bioluminescence was inactive: 88.6%.

`O=C(CCCOc1ccc(Cl)cc1Cl)N/N=C1/C(=O)Nc2ccccc21`: the intracellular bacterial bioluminescence is inactive: 109%.

`CCCCC(=O)Nc1ncc(Cc2ccc(Cl)c(Cl)c2)s1`: the intracellular bacterial bioluminescence is inactive: 54%.

In the case of `O=C(Cc1ccccc1)NNC(=O)CC1SC(=O)NC1=O` (centres undefined), the intracellular bacterial bioluminescence was inactive: 120%.

For the molecule `O=C1c2ccncc2C(=O)N1CNc1ccccn1`, the intracellular bacterial bioluminescence was inactive: 95.8%.

For `CCN(CC)CCN1C(=O)C(O)=C(C(=O)c2ccc(OC)cc2C)C1c1ccc(O)cc1` (centres undefined), the intracellular bacterial bioluminescence was inactive: 116%.

`CCc1ccccc1NC(=O)CSC1=C(C#N)C(c2ccc(C)cc2)C2=C(CCCC2=O)N1` (centres undefined): the intracellular bacterial bioluminescence is inactive: 105%.

As for `CC(C)Oc1ccc(C(=O)Nc2cccc3c2C(=O)c2ccccc2C3=O)cc1`, the intracellular bacterial bioluminescence is inactive: 84.9%.

As for `Cc1cc(C)c2ccc(NC(=O)c3c(-c4ccncc4)noc3C)nc2n1`, the intracellular bacterial bioluminescence was inactive: 83.9%.

Regarding `CCC(Cc1ccccc1)Nc1nn2nnnc2c2ccccc12` (centres undefined), the intracellular bacterial bioluminescence is inactive: 87%.

Take `O=C(Nc1ccc(F)cc1F)N1CCc2nc(N3CCCCC3)ncc2C1`: the intracellular bacterial bioluminescence is inactive: 50%.

For `COc1cccc(C(=O)Nc2cc(=O)n(C)c(=O)n2C)c1`, the intracellular bacterial bioluminescence is inactive: 97.2%.

For the molecule `CCc1nnc(NC(=O)c2nn(-c3ccc(C)cc3)c3c(=O)n(C)cnc23)s1`, the intracellular bacterial bioluminescence is inactive: 84.9%.

As for `O=C(CSc1ccc(-c2ccco2)nn1)Nc1cccc(F)c1`, the intracellular bacterial bioluminescence is inactive: 76.6%.

In the case of `Cc1cccc(-n2nnc(C(=O)Nc3ccccc3)c2C)c1`, the intracellular bacterial bioluminescence was inactive: 73%.

As for `COCCNc1nc(N)c([N+](=O)[O-])c(Nc2cccc(Cl)c2)n1`, the intracellular bacterial bioluminescence was inactive: 67.8%.

Take `Cc1cc(C)c2cc(C#N)c(NCCCNS(=O)(=O)c3ccccc3C(F)(F)F)nc2c1`: the intracellular bacterial bioluminescence is inactive: 122%.

Turning to `Cc1ccc(S(=O)(=O)n2nc(-c3ccccc3Cl)nc2N)cc1`, the intracellular bacterial bioluminescence is inactive: 85.4%.

Take `O=C(NC1CCCCC1)c1c(O)nc2sccn2c1=O`: the intracellular bacterial bioluminescence is inactive: 107%.

Regarding `Cn1c(=O)c2[nH]c(SCC(=O)c3ccc4c(c3)OCCO4)nc2n(C)c1=O`, the intracellular bacterial bioluminescence is inactive: 125%.

Turning to `Cc1cc(Nc2ccc(F)c(Cl)c2)n2ncnc2n1`, the intracellular bacterial bioluminescence is inactive: 105%.

For the molecule `O=C(Cc1ccc(-c2ccccc2)cc1)Nc1nnc2n1CCS2`, the intracellular bacterial bioluminescence was inactive: 114%.

As to `O=C1CN(S(=O)(=O)c2ccc(Br)cc2)c2ccccc2N1`, the intracellular bacterial bioluminescence was inactive: 101%.

In the case of `CCOC(=O)c1sc(NC(=O)C2=COCCO2)cc1C`, the intracellular bacterial bioluminescence was inactive: 108%.

Consider `COc1cccc(CNC(=O)c2cc3n(n2)CCCN(Cc2ccccc2)C3=O)c1OC`, for which the intracellular bacterial bioluminescence was inactive: 110%.

As to `Nc1cc(-c2ccco2)nn(CC(=O)N2CCOCC2)c1=O`, the intracellular bacterial bioluminescence was inactive: 123%.

Turning to `Cc1cccc2cc(CN(Cc3ccccc3)C(=O)c3ccccc3F)c(Cl)nc12`, the intracellular bacterial bioluminescence is inactive: 88%.

With `COC(=O)c1sc2ccccc2c1NC(=O)c1ccc2ncsc2c1`, the intracellular bacterial bioluminescence was inactive: 60%.

`CCc1cc2c(N3CCC(C(=O)NCCCN4CCN(C)CC4)CC3)ncnc2s1`: the intracellular bacterial bioluminescence was inactive: 103%.

Regarding `Cc1cc(C)nc(SCCS(=O)(=O)c2nc3ccccc3s2)n1`, the intracellular bacterial bioluminescence is inactive: 2.4%.

Take `COc1ccccc1CNC(=O)c1nc(N2CCCC2)c2c(C)c(C)n(-c3cccc(Cl)c3)c2n1`: the intracellular bacterial bioluminescence was inactive: 85.9%.

Regarding `CCc1nnsc1C(=O)Nc1ncc([N+](=O)[O-])s1`, the intracellular bacterial bioluminescence was inactive: 92.8%.

Take `Cc1nc2c(ccc3nc(NC(=O)c4ccc(Br)s4)sc32)s1`: the intracellular bacterial bioluminescence was inactive: 106%.

For the molecule `COc1cc(C2C(C(=O)c3cccs3)=C(O)C(=O)N2c2nncs2)ccc1O` (centres undefined), the intracellular bacterial bioluminescence is inactive: 112%.

Consider `Cc1csc(-c2csc(S(=O)(=O)N3CCC(C)CC3)c2)n1`, for which the intracellular bacterial bioluminescence is inactive: 30.4%.

`CCOC(=O)c1sc(NC(=O)C2CC2)cc1C`: the intracellular bacterial bioluminescence is inactive: 112%.

Consider `CCOc1ccc(NC(=O)c2cccnc2-c2ccsc2)cc1`, for which the intracellular bacterial bioluminescence is inactive: 85.9%.

As for `Cc1ccc2cc(C#N)c(NCCNS(=O)(=O)c3cccc4ccccc34)nc2c1`, the intracellular bacterial bioluminescence is inactive: 44.9%.

On to `O=C(c1noc2ccc(S(=O)(=O)N3CCN(Cc4ccc5c(c4)OCO5)CC3)cc12)N1CCCC1`, for which the intracellular bacterial bioluminescence is inactive: 62.3%.

As to `Cc1nn(-c2nc3ccccc3[nH]2)c2c1C(c1ccccc1C(F)(F)F)CC(=O)N2` (centres undefined), the intracellular bacterial bioluminescence was inactive: 74.7%.

Take `Cc1cc(C)c2nc(NNC(=O)COc3ccccc3)sc2c1`: the intracellular bacterial bioluminescence is inactive: 80.7%.

`O=C(O)c1cc(-c2ccc(-c3ccc(F)cc3)o2)nc2ccccc12`: the intracellular bacterial bioluminescence is inactive: 103%.

With `O=C(CC1Nc2ccccc2NC1=O)Nc1ccc2c(c1)OCO2` (centres undefined), the intracellular bacterial bioluminescence was inactive: 56.7%.

As for `O=C(O)CSc1ccc(S(=O)(=O)C(F)(F)F)cc1[N+](=O)[O-]`, the intracellular bacterial bioluminescence is inactive: 133%.

As for `Cc1c(C(=S)Nc2ccccc2)cnn1-c1ccc([N+](=O)[O-])cc1`, the intracellular bacterial bioluminescence is inactive: 78.4%.

For the molecule `CC(=O)c1cccc(NC(=O)Nc2nc(SCc3c(F)cccc3Cl)ns2)c1`, the intracellular bacterial bioluminescence is inactive: 93.4%.

As to `CCOC(=O)c1c(C)oc2c1/C(=C/NCc1ccccn1)C(=O)c1ccccc1-2`, the intracellular bacterial bioluminescence is inactive: 36.2%.
